# Laboratory results from PubChem BioAssay AID204 (DTP/NCI, 2004).
# The list shows only some results of the screen, not a fair sample: its compounds were picked by chemical class. Other doses and runs of a compound may be missing. T/C gives the treated animals as a percentage of the vehicle group. Some entries give survivors of the animals treated and no T/C: the source files T/C as zero there, which appears to mark a toxic dose or a test without result, not a measured value. Some doses without a T/C left all or most animals alive at the check, yet need not have been tolerated: survival well below the control is almost never listed, so the zero probably covers shortened survival too. Survivors were counted at the toxicity check, usually on the fifth day, unless a day is given; later deaths do not show. Schedules are NCI's codes, read here as Q, the interval in days (D) or hours (H), X, the number of doses. Where survival is the endpoint, this PubChem deposit counts one and a half times the control or more as active, and values a quarter to a half above the control carry no call in these data; other NCI protocols may use other cut-offs. Some T/C values are followed by the survivors on the day toxicity was checked, most often the fifth; without a count or a note in brackets, all were alive then. Some doses were run more than once; the results are listed from low to high.
# Test system: BDF1 mice, P288 methotrexate-resistant leukemia, survival T/C
# Assay: NCI In Vivo Anticancer Drug Screen. Data for tumor model P288 Lymphocytic Leukemia resistant to methotrexate; NSC 740 (intraperitoneal) in B6D2F1 (BDF1) mice
# Conditions: T/C endpoint: median survival time, schedule: Q01DX010 (ip), vehicle: saline, higher T/C = longer survival
# Procedure: The antitumor activity of compounds was measured in mice bearing transplantable tumors. Survival or tumor size were measured and the results are expressed as the measurement made in the treated group (T) divided by the measurement made in the vehicle treated control group (C). The tumor model used in this assay is P288 Lymphocytic Leukemia resistant to methotrexate; NSC 740 (intraperitoneal) in B6D2F1 (BDF1) mice
compound,measurement,setting,value
CN(N=O)C(=N)N[N+](=O)[O-],T/C,dose: 8.0 mg/kg/injection,140 % of control
same,survivor count,dose: 8.0 mg/kg/injection,6 of 6
same,T/C,dose: 16.0 mg/kg/injection,110 and 135 % of control
same,T/C,dose: 32.0 mg/kg/injection,95 % of control
same,survivor count,dose: 32.0 mg/kg/injection,6 of 6
same,survivor count,dose: 64.0 mg/kg/injection,6 of 6
Cc1[nH]c(=O)[nH]c(=O)c1N(CCCl)CCCl,T/C,dose: 0.5 mg/kg/injection,105 % of control
same,T/C,dose: 1.0 mg/kg/injection,155 % of control
same,survivor count,dose: 2.0 mg/kg/injection,6 of 6
same,survivor count,dose: 4.0 mg/kg/injection,6 of 6
NC1CCCCC1.O=P(O)(N(CCCl)CCCl)N1CC1,T/C,dose: 1.25 mg/kg/injection,119 % of control
same,T/C,dose: 2.5 mg/kg/injection,108 and 126 % of control [5 of 6 alive]
same,T/C,dose: 5.0 mg/kg/injection,120 and 134 % of control
same,T/C,dose: 10.0 mg/kg/injection,145 and 153 % of control
same,T/C,dose: 20.0 mg/kg/injection,175 % of control
